Data as given in PubChem BioAssay AID1259301 (Sanger Institute, 2017)
Screen: 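Kinase knock-downs that boost targeted drug killing in colorectal cancer cells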 (secondary rescreen of primary hits using four separate siRNAs per gene). System: LS180 human colorectal cancer cells. Reagent: single siRNA against human genes. Treatment: anchor drug BYL719 at 1 µM, cetuximab at 5 µg/ml or trametinib at 10 nM, each against a DMSO vehicle arm. Measured: 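Replicate-averaged survival as a fraction of the non-targeting pool 2 control, and per-drug synergy scores measured relative to the anchor drug on its own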. Scale: synergy score with BYL719 and synergy score with cetuximab and synergy score with trametinib: higher = stronger synergistic (synthetic lethal) killing. Hit rule: 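Hit if synergy exceeds 0.10 with BYL719, cetuximab or trametinib, any single drug sufficing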. Meaning of the calls: active = synergy with at least one drug; inactive = no synergy with any drug.
The whole screen tested 160 reagents; below is a random part of them. In the full data, 67 (42%) are marked active. 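Calls rest on synergy in any drug arm, not on siRNA-alone viability; rescreen tested four distinct siRNAs for each gene.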 The numbers tell different reagents against one gene apart. Not all columns of the deposit are shown. Reagent sequences are not shown. Not given: the amount of reagent, the time to read-out.

With knock-down of RPS6KA4 #1, the screen gave synergy score with BYL719 = -0.0791; synergy score with cetuximab -0.0678; synergy score with trametinib 0.0331; inactive.
RPS6KA4 #2 scored synergy score with BYL719 = -0.0895; synergy score with cetuximab -0.247; synergy score with trametinib 0.016; inactive.
For RPS6KA4 #3 the deposit lists synergy score with BYL719 = -0.0327; synergy score with cetuximab 0.0421; synergy score with trametinib -0.0631; inactive.
After knock-down of RPS6KA4 #4, the record shows synergy score with BYL719 = 0.13; synergy score with cetuximab 0.0236; synergy score with trametinib 0.133; active.
Against PIM1 #1, the entry reads synergy score with BYL719 = 0.0189; synergy score with cetuximab -0.0525; synergy score with trametinib 0.0304; inactive.
Knock-down of PIM1 #2 gave: synergy score with BYL719 = 0.132; synergy score with cetuximab -0.0565; synergy score with trametinib 0.181; active.
For PIM1 #3 the deposit lists synergy score with BYL719 = -0.104; synergy score with cetuximab -0.087; synergy score with trametinib -0.0419; inactive.
Silencing of PIM1 #4 came out at: synergy score with BYL719 = -0.12; synergy score with cetuximab -0.309; synergy score with trametinib 0.0158; inactive.
For HSPB8 #1, the values are synergy score with BYL719 = -0.0715; synergy score with cetuximab 0.0938; synergy score with trametinib 0.115; active.
After knock-down of HSPB8 #2 the results were synergy score with BYL719 = -0.209; synergy score with cetuximab -0.164; synergy score with trametinib -0.0557; inactive.
HSPB8 #3 scored synergy score with BYL719 = -0.305; synergy score with cetuximab 0.0327; synergy score with trametinib 0.214; active.
For HSPB8 #4 the deposit lists synergy score with BYL719 = 0.0747; synergy score with cetuximab 0.118; synergy score with trametinib 0.167; active.
CRIM1 #1 showed synergy score with BYL719 = 0.0593; synergy score with cetuximab -0.0557; synergy score with trametinib -0.0282; inactive.
After knock-down of CRIM1 #2, the record shows synergy score with BYL719 = -0.0347; synergy score with cetuximab -0.0683; synergy score with trametinib 0.0742; inactive.
CRIM1 #3 scored synergy score with BYL719 = 0.192; synergy score with cetuximab 0.113; synergy score with trametinib 0.17; active.
Knock-down of CRIM1 #4 gave: synergy score with BYL719 = -0.00171; synergy score with cetuximab -0.135; synergy score with trametinib 0.108; active.
Against PRAG1 #1, the values are synergy score with BYL719 = 0.099; synergy score with cetuximab -0.182; synergy score with trametinib 0.0376; inactive.
PRAG1 #2 gave synergy score with BYL719 = 0.424; synergy score with cetuximab 0.179; synergy score with trametinib 0.212; active.
PRAG1 #3 gave synergy score with BYL719 = -0.0104; synergy score with cetuximab -0.0142; synergy score with trametinib 0.0304; inactive.
Depletion of PRAG1 #4 gave: synergy score with BYL719 = -0.082; synergy score with cetuximab 0.044; synergy score with trametinib -0.0718; inactive.
Silencing of GTF2H1 #1 came out at: synergy score with BYL719 = -0.219; synergy score with cetuximab -0.103; synergy score with trametinib -0.218; inactive.
With knock-down of GTF2H1 #2, the screen gave synergy score with BYL719 = -0.142; synergy score with cetuximab -0.0278; synergy score with trametinib -0.0455; inactive.
After knock-down of GTF2H1 #3, the screen gave synergy score with BYL719 = -0.17; synergy score with cetuximab -0.0919; synergy score with trametinib -0.106; inactive.
GTF2H1 #4 showed synergy score with BYL719 = -0.0285; synergy score with cetuximab -0.14; synergy score with trametinib 0.00457; inactive.
PINK1 #1 showed synergy score with BYL719 = -0.265; synergy score with cetuximab -0.0953; synergy score with trametinib 0.101; active.
With knock-down of PINK1 #2, the record shows synergy score with BYL719 = -0.0521; synergy score with cetuximab 0.00724; synergy score with trametinib 0.103; active.
For PINK1 #3, the values are synergy score with BYL719 = -0.0134; synergy score with cetuximab 0.0633; synergy score with trametinib 0.135; active.
Against PINK1 #4, the values are synergy score with BYL719 = -0.011; synergy score with cetuximab -0.0708; synergy score with trametinib 0.291; active.
